These are yes or no findings as the source states them, for the method shown. Binding seen in cells or lysates may run through a third protein. A yes stands for co-enrichment or nearness to the bait. Other partners may have been found.
Molecular target: Menin (human (endogenous in LNCaP, PNT1A, PC-3)) (UniProt O00255)
Test: affinity purification with mass spectrometry; IP-MS of Menin from PNT1A, LNCaP and PC-3 cells; IP in triplicate, three technical replications of MS

By UniProt entry, the sequences of proteins in these tests, tags left out.
UniProt O00255: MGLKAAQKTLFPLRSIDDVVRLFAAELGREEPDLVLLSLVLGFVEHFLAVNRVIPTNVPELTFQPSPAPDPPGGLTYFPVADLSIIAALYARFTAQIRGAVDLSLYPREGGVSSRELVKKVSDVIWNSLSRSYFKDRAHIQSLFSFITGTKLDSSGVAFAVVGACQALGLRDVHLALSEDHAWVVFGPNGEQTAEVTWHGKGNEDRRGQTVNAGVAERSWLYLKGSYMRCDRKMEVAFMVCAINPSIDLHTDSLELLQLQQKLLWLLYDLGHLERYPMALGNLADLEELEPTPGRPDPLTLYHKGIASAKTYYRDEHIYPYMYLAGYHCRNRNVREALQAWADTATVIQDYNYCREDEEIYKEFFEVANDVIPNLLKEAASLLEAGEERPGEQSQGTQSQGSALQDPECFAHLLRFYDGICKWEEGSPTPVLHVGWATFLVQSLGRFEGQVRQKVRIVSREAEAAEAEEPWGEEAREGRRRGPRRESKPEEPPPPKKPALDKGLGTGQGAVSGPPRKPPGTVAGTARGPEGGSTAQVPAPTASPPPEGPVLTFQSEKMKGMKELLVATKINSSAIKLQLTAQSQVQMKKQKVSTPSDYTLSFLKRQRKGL

B1: SNW Domain Containing 1 (protein, UniProt Q13573 1-536)
chain: MALTSFLPAPTQLSQDQLEAEEKARSQRSRQTSLVSSRREPPPYGYRKGWIPRLLEDFGDGGAFPEIHVAQYPLDMGRKKKMSNALAIQVDSEGKIKYDAIARQGQSKDKVIYSKYTDLVPKEVMNADDPDLQRPDEEAIKEITEKTRVALEKSVSQKVAAAMPVRAADKLAPAQYIRYTPSQQGVAFNSGAKQRVIRMVEMQKDPMEPPRFKINKKIPRGPPSPPAPVMHSPSRKMTVKEQQEWKIPPCISNWKNAKGYTIPLDKRLAADGRGLQTVHINENFAKLAEALYIADRKAREAVEMRAQVERKMAQKEKEKHEEKLREMAQKARERRAGIKTHVEKEDGEARERDEIRHDRRKERQHDRNLSRAAPDKRSKLQRNENRDISEVIALGVPNPRTSNEVQYDQRLFNQSKGMDSGFAGGEDEIYNVYDQAWRGGKDMAQSIYRPSKNLDKDMYGDDLEARIKTNRFVPDKEFSGSDRRQRGREGPVQFEEDPFGLDKFLEEAKQHGGSKRPSDSSRPKEHEHEGKKRRKE
binding: binds

Reference: article PMC8724010
